Publication PMC6929620
These are yes or no findings as the source states them, for the method shown. Binding seen in cells or lysates may run through a third protein. These calls come from enrichment with a bait or labelling near it, and not all partners need be listed.

Amino acid sequences for entries named in this document (tags omitted).
UniProt O43347: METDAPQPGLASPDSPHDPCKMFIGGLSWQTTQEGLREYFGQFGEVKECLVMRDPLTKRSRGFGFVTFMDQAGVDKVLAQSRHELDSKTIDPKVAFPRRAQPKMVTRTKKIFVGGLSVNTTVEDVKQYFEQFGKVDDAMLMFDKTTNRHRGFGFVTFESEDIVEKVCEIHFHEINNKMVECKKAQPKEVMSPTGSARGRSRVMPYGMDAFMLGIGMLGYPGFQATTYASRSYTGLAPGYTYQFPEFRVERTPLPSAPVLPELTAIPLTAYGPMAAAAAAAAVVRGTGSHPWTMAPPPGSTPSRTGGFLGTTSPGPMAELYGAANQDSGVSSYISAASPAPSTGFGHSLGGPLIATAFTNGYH
UniProt P19525: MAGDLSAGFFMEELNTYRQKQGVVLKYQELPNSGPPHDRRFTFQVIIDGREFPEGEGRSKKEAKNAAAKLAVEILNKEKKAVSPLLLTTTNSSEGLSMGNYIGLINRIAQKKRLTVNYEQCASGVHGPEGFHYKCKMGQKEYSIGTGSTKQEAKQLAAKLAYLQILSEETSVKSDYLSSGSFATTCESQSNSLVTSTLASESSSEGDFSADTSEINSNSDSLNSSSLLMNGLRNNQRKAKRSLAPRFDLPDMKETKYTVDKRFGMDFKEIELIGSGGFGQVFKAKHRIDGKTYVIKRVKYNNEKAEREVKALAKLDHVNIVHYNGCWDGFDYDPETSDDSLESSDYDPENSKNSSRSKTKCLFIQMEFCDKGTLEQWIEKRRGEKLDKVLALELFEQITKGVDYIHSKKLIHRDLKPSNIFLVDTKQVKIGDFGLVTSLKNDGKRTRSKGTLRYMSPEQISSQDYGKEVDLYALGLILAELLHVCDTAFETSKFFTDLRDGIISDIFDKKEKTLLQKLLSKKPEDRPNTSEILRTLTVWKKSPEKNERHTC
UniProt Q9P2K8: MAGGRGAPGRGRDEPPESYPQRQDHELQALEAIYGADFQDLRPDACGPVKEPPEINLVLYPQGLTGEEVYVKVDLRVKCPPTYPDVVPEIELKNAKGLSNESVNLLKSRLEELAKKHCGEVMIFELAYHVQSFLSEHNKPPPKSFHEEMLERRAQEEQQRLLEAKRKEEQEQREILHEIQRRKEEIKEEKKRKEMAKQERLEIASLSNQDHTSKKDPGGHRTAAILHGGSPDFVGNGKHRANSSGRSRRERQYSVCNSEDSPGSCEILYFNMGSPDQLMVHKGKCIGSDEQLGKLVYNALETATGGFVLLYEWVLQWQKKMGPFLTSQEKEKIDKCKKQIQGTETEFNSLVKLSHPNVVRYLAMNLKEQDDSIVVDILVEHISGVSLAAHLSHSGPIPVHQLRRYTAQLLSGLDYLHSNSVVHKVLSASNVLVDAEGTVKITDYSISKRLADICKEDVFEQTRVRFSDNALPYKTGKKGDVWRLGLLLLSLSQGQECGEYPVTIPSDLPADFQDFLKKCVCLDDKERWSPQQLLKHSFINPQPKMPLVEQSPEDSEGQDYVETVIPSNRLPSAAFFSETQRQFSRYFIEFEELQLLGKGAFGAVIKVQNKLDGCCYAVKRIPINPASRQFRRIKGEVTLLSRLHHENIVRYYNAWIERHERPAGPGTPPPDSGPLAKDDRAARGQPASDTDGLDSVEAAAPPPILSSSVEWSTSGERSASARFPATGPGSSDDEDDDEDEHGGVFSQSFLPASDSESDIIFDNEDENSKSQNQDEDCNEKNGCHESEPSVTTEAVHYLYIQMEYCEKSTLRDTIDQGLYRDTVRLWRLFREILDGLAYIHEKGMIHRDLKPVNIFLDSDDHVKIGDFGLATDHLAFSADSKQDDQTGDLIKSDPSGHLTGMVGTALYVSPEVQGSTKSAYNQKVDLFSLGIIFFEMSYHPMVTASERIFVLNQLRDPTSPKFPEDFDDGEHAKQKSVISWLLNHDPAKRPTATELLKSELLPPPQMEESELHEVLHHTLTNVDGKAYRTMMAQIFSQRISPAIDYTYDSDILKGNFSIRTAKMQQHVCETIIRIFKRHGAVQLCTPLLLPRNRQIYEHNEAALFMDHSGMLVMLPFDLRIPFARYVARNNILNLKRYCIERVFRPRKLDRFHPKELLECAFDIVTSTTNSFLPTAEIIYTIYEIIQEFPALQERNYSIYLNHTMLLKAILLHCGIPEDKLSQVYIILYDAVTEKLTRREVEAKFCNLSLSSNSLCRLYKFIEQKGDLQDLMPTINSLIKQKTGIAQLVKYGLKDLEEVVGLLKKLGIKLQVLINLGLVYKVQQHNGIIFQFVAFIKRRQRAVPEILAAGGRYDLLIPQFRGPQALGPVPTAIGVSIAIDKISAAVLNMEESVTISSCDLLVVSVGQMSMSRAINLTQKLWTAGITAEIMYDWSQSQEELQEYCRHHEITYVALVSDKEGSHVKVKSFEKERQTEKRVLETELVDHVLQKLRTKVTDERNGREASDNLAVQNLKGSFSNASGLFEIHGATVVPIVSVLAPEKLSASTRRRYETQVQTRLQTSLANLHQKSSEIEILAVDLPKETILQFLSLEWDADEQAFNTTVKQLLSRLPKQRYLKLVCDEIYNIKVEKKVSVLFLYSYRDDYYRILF
UniProt P11940: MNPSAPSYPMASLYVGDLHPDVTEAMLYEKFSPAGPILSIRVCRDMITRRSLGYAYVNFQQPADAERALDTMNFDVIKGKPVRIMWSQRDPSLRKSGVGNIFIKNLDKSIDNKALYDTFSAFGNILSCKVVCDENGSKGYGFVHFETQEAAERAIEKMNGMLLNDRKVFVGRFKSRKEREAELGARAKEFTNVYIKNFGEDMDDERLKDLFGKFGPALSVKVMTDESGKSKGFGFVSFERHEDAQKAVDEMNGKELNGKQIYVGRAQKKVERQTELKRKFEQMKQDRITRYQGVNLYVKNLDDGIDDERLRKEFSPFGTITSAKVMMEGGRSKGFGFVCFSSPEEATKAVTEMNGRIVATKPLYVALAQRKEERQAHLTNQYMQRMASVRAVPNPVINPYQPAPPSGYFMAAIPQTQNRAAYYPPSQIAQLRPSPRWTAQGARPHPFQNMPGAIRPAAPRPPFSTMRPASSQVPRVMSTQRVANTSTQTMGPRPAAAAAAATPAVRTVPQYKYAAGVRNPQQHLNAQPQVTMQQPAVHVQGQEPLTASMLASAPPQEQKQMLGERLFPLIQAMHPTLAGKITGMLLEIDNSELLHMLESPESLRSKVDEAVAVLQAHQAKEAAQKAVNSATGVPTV

Molecular target: Flag-tagged wild-type MSI1 (Musashi-1) (human) (UniProt O43347)
Test: affinity purification with mass spectrometry; Flag-tagged MSI1 protein complex purified from the cytosolic fraction of 05MG cells under normoxia or hypoxia

binding | Substance
binds | PKR (from UniProt P19525 1-551)
binds | GCN2 (from UniProt Q9P2K8 1-1649)
binds | PABP (from UniProt P11940 1-636)
